Results as given in patent US7704508B2, “Babesia subtilisin” (New York Blood Center, priority 2007, dated 2010).
Some of these results come from one statement about several compounds together. Some compounds share one range, which may span the group rather than tell each member. Starred links: 1 amine or outer side, 2 acyl side, 3 side chain; linkers in the order of their positions; H or OH if unused. Non-standard residues stand in square brackets, D forms with d. Residues, ends and D or L forms follow the SMILES beside them. ξ: configuration not given here. *: point of attachment. Sta = CC(C)C[C@H](N)[C@@H](O)CC(=O)O; Isovaleryl = CC(C)CC(=O)*; ξF = NC(Cc1ccccc1)C(=O)O; CO = O=C([*:1])[*:2]

Tests used:
B. divergens [1] = assay: Effect of protease inhibitors on B. divergens erythrocyte invasion (parasitemia by YOYO-1 flow cytometry, T10); type: cell-based; conditions: 50 and 100 μM, relative to control
Protocol: (§1) Parasitemia for B. divergens was assessed in human RBCs using a modification of the methods of Barkan et al. (Int. J. Parasitol. 30:649-53, 2000) and Jimenez-Diaz et al. (Cytometry A 67:27-36, 2005), both of which are incorporated by reference herein for all they contain regarding assessment of parasitemia. DNA content was measured after staining with YOYO-1 (a high affinity cell-impermeant dye that increases green fluorescence by 1000-fold when bound to dsDNA) observed infected erythrocytes compared with non-infected human erythrocytes for B. divergens.
(§2) To assess the effect of various protease inhibitors, parasitemia was assessed in 180 parasite samples taken at different time points (0 and after 10, 24, 48 and 72 h). In parallel with the evaluation of the parasitemia by FACS (fluorescence activated cell sorting), 60 random parasite samples were analyzed by light microscopy using Giemsa-stained thin blood smears, with 500-1000 RBCs being counted for each smear. […] Integration of the numbers of events represented in the right peak provides a direct estimate of the parasitemia, where one infected cell is one event.
(§3) Protease inhibitors were tested for their ability to inhibit the invasion and growth of B. divergens in vitro.
(§4) The effects of EGTA, a chelating agent capable of binding metal ions including Ca^2+, on the invasion and growth of B. divergens was tested. EGTA cannot permeate the biological membrane of cells so its effects are only on the chelation of extracellular ions. As many serine proteases require Ca^2+ for activity, EGTA also functions as a serine protease inhibitor.

B. divergens [2] = assay: Effect of protease inhibitors on B. divergens growth in culture (parasitemia by YOYO-1 flow cytometry, T72); type: cell-based; conditions: 50 and 100 μM, compared to control
Protocol: as §1, §2, §3, §4

O=S(=O)(F)Cc1ccccc1 [PMSF, phenylmethylsulfonyl fluoride]
inhibition of invasion (B. divergens [1]): 2-38% | inhibition of growth / decrease of parasitemia after 72 h (B. divergens [2]): 9-47%

NCCc1ccc(S(=O)(=O)F)cc1 [ABSF, 4-(2-aminoethyl)benzenesulfonyl fluoride]
inhibition of invasion (B. divergens [1]): 2-38% | inhibition of growth / decrease of parasitemia after 72 h (B. divergens [2]): 9-47%

CC(C)[C@H](NC(=O)[C@H](CCCNC(=N)N)NC(=O)NC(Cc1ccccc1)C(=O)O)C(=O)N[C@H](C=O)CCCNC(=N)N (stereo partly drawn) [Antipain, (1-carboxy-2-phenylethyl)carbamoyl-L-arginyl-L-valylargininal] ({ξF-CO}-Arg-Val-Arg-aldehyde)
inhibition of invasion (B. divergens [1]): 2-38% | inhibition of growth / decrease of parasitemia after 72 h (B. divergens [2]): 9-47%

CC(C)CC(=O)N[C@H](C(=O)N[C@H](C(=O)N[C@@H](CC(C)C)[C@@H](O)CC(=O)N[C@@H](C)C(=O)N[C@@H](CC(C)C)[C@@H](O)CC(=O)O)C(C)C)C(C)C [Pepstatin, pepstatin] (Isovaleryl-VV[Sta]A[Sta]-OH)
inhibition of invasion (B. divergens [1]): 2-38%
